Tested on: Hsp90 complexes in K562 cell extract
Experiment: Nano-LC-MS/MS of PU-beads pull-downs
Assay type: binding
Settings: for MAXIMUM matched peptides: maximum over fractions JA01-JA14; for Total fmol: protein isolated in PU-beads pull-downs, Waters Xevo QTof MS; for Matched Peptides by Fraction JA05: Run1, gel size cut 60-80; for Matched Peptides by Fraction JA12: Run2, gel size cut 60-80; for Matched Peptides by Fraction JA07: Run1, gel size cut <40; for Matched Peptides by Fraction JA14: Run2, gel size cut <40
Description: Protein cargo isolated from cell lysate with PU-beads or control-beads was subjected to proteomic analysis by nano liquid chromatography coupled to tandem mass spectrometry (nano LC-MS/MS). Initial protein identification was performed using the Mascot search engine, and was further evaluated using Scaffold Proteome Software (Tables 5a-d).
Lysates prepared as mentioned above were first pre-cleaned by incubation with control beads overnight at 4° C. […] Beads were washed with lysis buffer, proteins eluted by boiling in 2% SDS, separated on a denaturing gel and Coomassie stained according to manufacturer's procedure (Biorad). […] Analyses of the batch purified pools were done using a QSTAR-Elite hybrid quadrupole time-of-flight mass spectrometer (QTof MS) (AB/MDS Sciex), equipped with a nano spray ion source. Peptide mixtures (in 20 μL) are loaded onto a trapping guard column (0.3×5-mm PepMap C18 100 cartridge from LC Packings) using an Eksigent nano MDLC system (Eksigent Technologies, Inc) at a flow rate of 20 μL/min. […] Electrospray ionization (ESI) needle voltage was set at about 1800 V. The mass analyzer is operated in automatic, data-dependent MS/MS acquisition mode, with the threshold set to 10 counts per second of doubly or triply charged precursor ions selected for fragmentation scans. Survey scans of 0.25 sec are recorded from 400 to 1800 amu; up to 3 MS/MS scans are then collected sequentially for the selected precursor ions, recording from 100 to 1800 amu. The collision energy is automatically adjusted in accordance with the m/z value of the precursor ions selected for MS/MS. Selected precursor ions are excluded from repeated selection for 60 sec after the end of the corresponding fragmentation duty cycle. […] One missed tryptic cleavage site was allowed, precursor ion mass tolerance=0.4 Da fragment ion mass tolerance=0.4 Da, protein modifications were allowed for Met-oxide, Cys-acrylamide and N-terminal acetylation. MudPit scoring was typically applied with ‘require bold red’ activated, and using significance threshold score p<0.05. Unique peptide counts (or ‘spectral counts’) and percent sequence coverages for all identified proteins were exported to Scaffold Proteome Software (version 2_06_01, www.proteomesoftware.com) for further bioinformatic analysis (Table 5a). Using output from Mascot, Scaffold validates, organizes, and interprets mass spectrometry data, allowing more easily to manage large amounts of data, to compare samples, and to search for protein modifications.

B1: DnaJ homolog subfamily B member 11 (protein, UniProt Q9UBS4 23-358, looked up)
DnaJ homolog subfamily B …: GRDFYKILGVPRSASIKDIKKAYRKLALQLHPDRNPDDPQAQEKFQDLGAAYEVLSDSEKRKQYDTYGEEGLKDGHQSSHGDIFSHFFGDFGFMFGGTPRQQDRNIPRGSDIIVDLEVTLEEVYAGNFVEVVRNKPVARQAPGKRKCNCRQEMRTTQLGPGRFQMTQEVVCDECPNVKLVNEERTLEVEIEPGVRDGMEYPFIGEGEPHVDGEPGDLRFRIKVVKHPIFERRGDDLYTNVTISLVESLVGFEMDITHLDGHKVHISRDKITRPGAKLWKKGEGLPNFDNNNIKGSLIITFDVDFPKEQLTEEAREGIKQLLKQGSVQKVYNGLQGY
Matched Peptides by Fraction JA06 (PU-beads pull-down, Run1, gel size cut 40-60): 5
Matched Peptides by Fraction JA13 (PU-beads pull-down, Run2, gel size cut 40-60): 6
MAXIMUM matched peptides (PU-beads pull-down): 6
Total fmol: 14.4606 fmol

B2: DnaJ homolog subfamily C member 7 (protein, UniProt Q99615 2-494, looked up)
DnaJ homolog subfamily C …: AAAAECDVVMAATEPELLDDQEAKREAETFKEQGNAYYAKKDYNEAYNYYTKAIDMCPKNASYYGNRAATLMMLGRFREALGDAQQSVRLDDSFVRGHLREGKCHLSLGNAMAACRSFQRALELDHKNAQAQQEFKNANAVMEYEKIAETDFEKRDFRKVVFCMDRALEFAPACHRFKILKAECLAMLGRYPEAQSVASDILRMDSTNADALYVRGLCLYYEDCIEKAVQFFVQALRMAPDHEKACIACRNAKALKAKKEDGNKAFKEGNYKLAYELYTEALGIDPNNIKTNAKLYCNRGTVNSKLRKLDDAIEDCTNAVKLDDTYIKAYLRRAQCYMDTEQYEEAVRDYEKVYQTEKTKEHKQLLKNAQLELKKSKRKDYYKILGVDKNASEDEIKKAYRKRALMHHPDRHSGASAEVQKEEEKKFKEVGEAFTILSDPKKKTRYDSGQDLDEEGMNMGDFDPNNIFKAFFGGPGGFSFEASGPGNFFFQFG
Matched Peptides by Fraction JA05 (PU-beads pull-down): 14
Matched Peptides by Fraction JA12 (PU-beads pull-down): 24
MAXIMUM matched peptides (PU-beads pull-down): 24
Total fmol: 19.0068 fmol

B3: AH receptor-interacting protein; Immunophilin homolog ARA9 (protein, UniProt O00170 1-330, looked up)
AH receptor-interacting …: MADIIARLREDGIQKRVIQEGRGELPDFQDGTKATFHYRTLHSDDEGTVLDDSRARGKPMELIIGKKFKLPVWETIVCTMREGEIAQFLCDIKHVVLYPLVAKSLRNIAVGKDPLEGQRHCCGVAQMREHSSLGHADLDALQQNPQPLIFHMEMLKVESPGTYQQDPWAMTDEEKAKAVPLIHQEGNRLYREGHVKEAAAKYYDAIACLKNLQMKEQPGSPEWIQLDQQITPLLLNYCQCKLVVEEYYEVLDHCSSILNKYDDNVKAYFKRGKAHAAVWNAQEAQADFAKVLELDPALAPVVSRELRALEARIRQKDEEDKARFRGIFSH
Matched Peptides by Fraction JA07 (PU-beads pull-down): 20
Matched Peptides by Fraction JA14 (PU-beads pull-down): 20
MAXIMUM matched peptides (PU-beads pull-down): 20
Total fmol: 32.7606 fmol

B4: Heat shock 70 kDa protein 4 (protein, UniProt P34932 1-840, looked up)
Heat shock 70 kDa protein 4: MSVVGIDLGFQSCYVAVARAGGIETIANEYSDRCTPACISFGPKNRSIGAAAKSQVISNAKNTVQGFKRFHGRAFSDPFVEAEKSNLAYDIVQLPTGLTGIKVTYMEEERNFTTEQVTAMLLSKLKETAESVLKKPVVDCVVSVPCFYTDAERRSVMDATQIAGLNCLRLMNETTAVALAYGIYKQDLPALEEKPRNVVFVDMGHSAYQVSVCAFNRGKLKVLATAFDTTLGGRKFDEVLVNHFCEEFGKKYKLDIKSKIRALLRLSQECEKLKKLMSANASDLPLSIECFMNDVDVSGTMNRGKFLEMCNDLLARVEPPLRSVLEQTKLKKEDIYAVEIVGGATRIPAVKEKISKFFGKELSTTLNADEAVTRGCALQCAILSPAFKVREFSITDVVPYPISLRWNSPAEEGSSDCEVFSKNHAAPFSKVLTFYRKEPFTLEAYYSSPQDLPYPDPAIAQFSVQKVTPQSDGSSSKVKVKVRVNVHGIFSVSSASLVEVHKSEENEEPMETDQNAKEEEKMQVDQEEPHVEEQQQQTPAENKAESEEMETSQAGSKDKKMDQPPQAKKAKVKTSTVDLPIENQLLWQIDREMLNLYIENEGKMIMQDKLEKERNDAKNAVEEYVYEMRDKLSGEYEKFVSEDDRNSFTLKLEDTENWLYEDGEDQPKQVYVDKLAELKNLGQPIKIRFQESEERPKLFEELGKQIQQYMKIISSFKNKEDQYDHLDAADMTKVEKSTNEAMEWMNNKLNLQNKQSLTMDPVVKSKEIEAKIKELTSTCSPIISKPKPKVEPPKEEQKNAEQNGPVDGQGDNPGPQAAEQGTDTAVPSDSDKKLPEMDID
Matched Peptides by Fraction JA03 (PU-beads pull-down, Run1, gel size cut 110-150): 9
Matched Peptides by Fraction JA10 (PU-beads pull-down, Run2, gel size cut 110-150): 17
MAXIMUM matched peptides (PU-beads pull-down): 17
Total fmol: 5.9277 fmol

B5: Peptidyl-prolyl cis-trans isomerase FKBP4 (protein, UniProt Q02790 1-459, looked up)
Peptidyl-prolyl cis-trans …: MTAEEMKATESGAQSAPLPMEGVDISPKQDEGVLKVIKREGTGTEMPMIGDRVFVHYTGWLLDGTKFDSSLDRKDKFSFDLGKGEVIKAWDIAIATMKVGEVCHITCKPEYAYGSAGSPPKIPPNATLVFEVELFEFKGEDLTEEEDGGIIRRIQTRGEGYAKPNEGAIVEVALEGYYKDKLFDQRELRFEIGEGENLDLPYGLERAIQRMEKGEHSIVYLKPSYAFGSVGKEKFQIPPNAELKYELHLKSFEKAKESWEMNSEEKLEQSTIVKERGTVYFKEGKYKQALLQYKKIVSWLEYESSFSNEEAQKAQALRLASHLNLAMCHLKLQAFSAAIESCNKALELDSNNEKGLFRRGEAHLAVNDFELARADFQKVLQLYPNNKAAKTQLAVCQQRIRRQLAREKKLYANMFERLAEEENKAKAEASSGDHPTDTEMKEEQKSNTAGSQSQVETEA
Matched Peptides by Fraction JA05 (PU-beads pull-down): 37
Matched Peptides by Fraction JA12 (PU-beads pull-down): 50
MAXIMUM matched peptides (PU-beads pull-down): 50
Total fmol: 58.4334 fmol

B6: DnaJ homolog subfamily C member 8 (protein, UniProt O75937 2-253, looked up)
DnaJ homolog subfamily C …: AASGESGTSGGGGSTEEAFMTFYSEVKQIEKRDSVLTSKNQIERLTRPGSSYFNLNPFEVLQIDPEVTDEEIKKRFRQLSILVHPDKNQDDADRAQKAFEAVDKAYKLLLDQEQKKRALDVIQAGKEYVEHTVKERKKQLKKEGKPTIVEEDDPELFKQAVYKQTMKLFAELEIKRKEREAKEMHERKRQREEEIEAQEKAKREREWQKNFEESRDGRVDSWRNFQANTKGKKEKKNRTFLRPPKVKMEQRE
Matched Peptides by Fraction JA07 (PU-beads pull-down): 5
Matched Peptides by Fraction JA14 (PU-beads pull-down): 6
MAXIMUM matched peptides (PU-beads pull-down): 6
Total fmol: 6.8808 fmol

B7: Peptidyl-prolyl cis-trans isomerase FKBP8 (protein, UniProt Q14318 1-412, looked up)
Peptidyl-prolyl cis-trans …: MASCAEPSEPSAPLPAGVPPLEDFEVLDGVEDAEGEEEEEEEEEEEDDLSELPPLEDMGQPPAEEAEQPGALAREFLAAMEPEPAPAPAPEEWLDILGNGLLRKKTLVPGPPGSSRPVKGQVVTVHLQTSLENGTRVQEEPELVFTLGDCDVIQALDLSVPLMDVGETAMVTADSKYCYGPQGRSPYIPPHAALCLEVTLKTAVDGPDLEMLTGQERVALANRKRECGNAHYQRADFVLAANSYDLAIKAITSSAKVDMTFEEEAQLLQLKVKCLNNLAASQLKLDHYRAALRSCSLVLEHQPDNIKALFRKGKVLAQQGEYSEAIPILRAALKLEPSNKTIHAELSKLVKKHAAQRSTETALYRKMLGNPSRLPAKCPGKGAWSIPWKWLFGATAVALGGVALSVVIAARN
Matched Peptides by Fraction JA05 (PU-beads pull-down): 5
MAXIMUM matched peptides (PU-beads pull-down): 5
Total fmol: 1.5935 fmol

B8: Peptidyl-prolyl cis-trans isomerase-like 2 (protein, UniProt Q13356 1-520, looked up)
RING-type E3 …: MGKRQHQKDKMYITCAEYTHFYGGKKPDLPQTNFRRLPFDHCSLSLQPFVYPVCTPDGIVFDLLNIVPWLKKYGTNPSNGEKLDGRSLIKLNFSKNSEGKYHCPVLFTVFTNNTHIVAVRTTGNVYAYEAVEQLNIKAKNFRDLLTDEPFSRQDIITLQDPTNLDKFNVSNFYHVKNNMKIIDPDEEKAKQDPSYYLKNTNAETRETLQELYKEFKGDEILAATMKAPEKKKVDKLNAAHYSTGKVSASFTSTAMVPETTHEAAAIDEDVLRYQFVKKKGYVRLHTNKGDLNLELHCDLTPKTCENFIRLCKKHYYDGTIFHRSIRNFVIQGGDPTGTGTGGESYWGKPFKDEFRPNLSHTGRGILSMANSGPNSNRSQFFITFRSCAYLDKKHTIFGRVVGGFDVLTAMENVESDPKTDRPKEEIRIDATTVFVDPYEEADAQIAQERKTQLKVAPETKVKSSQPQAGSQGPQTFRQGVGKYINPAATKRAAEEEPSTSATVPMSKKKPSRGFGDFSSW
Matched Peptides by Fraction JA05 (PU-beads pull-down): 11
Matched Peptides by Fraction JA12 (PU-beads pull-down): 21
MAXIMUM matched peptides (PU-beads pull-down): 21
Total fmol: 6.0454 fmol

B9: DnaJ homolog subfamily C member 9 (protein, UniProt Q8WXX5 1-260, looked up)
DnaJ homolog subfamily C …: MGLLDLCEEVFGTADLYRVLGVRREASDGEVRRGYHKVSLQVHPDRVGEGDKEDATRRFQILGKVYSVLSDREQRAVYDEQGTVDEDSPVLTQDRDWEAYWRLLFKKISLEDIQAFEKTYKGSEEELADIKQAYLDFKGDMDQIMESVLCVQYTEEPRIRNIIQQAIDAGEVPSYNAFVKESKQKMNARKRRAQEEAKEAEMSRKELGLDEGVDSLKAAIQSRQKDRQKEMDNFLAQMEAKYCKSSKGGGKKSALKKEKK
Matched Peptides by Fraction JA07 (PU-beads pull-down): 3
Matched Peptides by Fraction JA14 (PU-beads pull-down): 4
MAXIMUM matched peptides (PU-beads pull-down): 4
Total fmol: 4.9413 fmol
